PubChem BioAssay AID652243 | Drosophila RNAi Screening Center – 2013

- Test: 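Fly genes required for human androgen receptor driven transcription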 (primary screen)
- System: Drosophila S2R+ cells
- Knock-down reagent: long dsRNA against Drosophila genes
- Duration: 72 h (48 h, then 24 h hormone)
- Challenge: synthetic androgen R1881 at 10 nM for 24 h
- Read-out: 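Firefly light from an androgen-responsive reporter and Renilla control light per well, raw and unnormalised, for each of two replicates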
- Direction: firefly reporter light: higher = more light from androgen-responsive reporter; Renilla control light: higher = more constitutive control signal (cell number, transfection)
- Rule for the call: 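Hit when the log firefly-to-Renilla ratio dropped or increased by a fixed fold versus the mean of GFP or LacZ controls across duplicate plates; lowering cut given as 1.5 and as 3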
- Meaning of the calls: active = hit: reporter lowered or raised; inactive = no hit
In all, the deposit lists about 24,000 reagents; this is an unselected part of those that have a named target and a result. Of all reagents, 246 (1%) got an active call. 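Plates not normalised; calls are printed but the firefly/Renilla ratio behind them is not deposited; fold cut for lowering reported inconsistently.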 Raw values vary from plate to plate and are shown uncorrected. Not given: the amount of reagent.

gene	amplicon	firefly reporter light, replicate 1	firefly reporter light, replicate 2	Renilla control light, replicate 1	Renilla control light, replicate 2	activity call
CG34106	DRSC38910	5.85e5	5.47e5	1.95e6	1.63e6	inactive
RpL10Aa (Ribosomal protein L10Aa)	DRSC15518	92032	78745	1.11e6	8.11e5	inactive
in (inturned)	DRSC11888	2.04e5	2.33e5	2.00e6	2.15e6	inactive
CG17207	DRSC15198	42883	30360	1.50e6	1.09e6	inactive
CG13653	DRSC14653	1.13e5	1.31e5	1.85e6	1.79e6	inactive
CG9981	DRSC20225	2.05e5	1.80e5	2.01e6	1.60e6	inactive
Ank2 (Ankyrin 2)	DRSC08894	1.76e5	1.60e5	3.98e5	3.42e5	inactive
Ank2 (Ankyrin 2)	DRSC09666	2.04e5	2.28e5	2.08e6	2.90e6	inactive
Ank2 (Ankyrin 2)	DRSC10338	1.19e5	1.50e5	1.11e6	1.36e6	inactive
Ank2 (Ankyrin 2)	DRSC11278	1.60e5	1.53e5	1.81e6	1.53e6	inactive
Ank2 (Ankyrin 2)	DRSC22922	6.25e5	1.39e6	1.44e6	2.60e6	inactive
Ank2 (Ankyrin 2)	DRSC29821	3.55e5	3.61e5	1.19e6	1.33e6	inactive
CG1894	DRSC15396	1.73e5	1.58e5	2.15e6	2.70e6	inactive
Hmbs (Hydroxymethylbilane synthase)	DRSC08632	7.93e5	9.87e5	1.29e6	1.33e6	inactive
CG43322	DRSC02280	80454	1.35e5	8.70e5	1.10e6	inactive
CG43322	DRSC27089	3.08e5	2.28e5	7.41e5	3.55e5	inactive
CG16974	DRSC02551	5.27e5	5.29e5	1.60e6	1.41e6	inactive
CG16974	DRSC28759	6.45e5	5.97e5	1.67e6	1.75e6	inactive
RluA-1 (RluA pseudouridine synthase 1)	DRSC02240	1.24e5	1.48e5	1.26e6	8.38e5	inactive
RluA-1 (RluA pseudouridine synthase 1)	DRSC03060	2.65e5	1.66e5	2.01e6	1.38e6	inactive
CG5003	DRSC15694	1.10e5	64760	4.00e5	6.39e5	inactive
CG5003	DRSC26689	1.93e5	1.50e5	3.81e5	3.28e5	inactive
Fit1 (Fermitin 1)	DRSC08450	1.34e6	1.07e6	1.20e6	1.43e6	inactive
Fit1 (Fermitin 1)	DRSC24407	6.53e5	8.62e5	8.28e5	7.71e5	inactive
CG4301	DRSC19886	1.82e5	2.21e5	2.63e6	2.28e6	inactive
dpr9 (defective proboscis extension response 9)	DRSC14534	1.08e5	1.60e5	9.98e5	1.30e6	inactive
dpr9 (defective proboscis extension response 9)	DRSC14985	53083	80066	1.44e6	1.61e6	inactive
dpr9 (defective proboscis extension response 9)	DRSC14986	94633	38118	1.34e6	6.98e5	inactive
dpr9 (defective proboscis extension response 9)	DRSC25267	3.85e5	3.84e5	4.61e5	5.03e5	inactive
Or49b (Odorant receptor 49b)	DRSC07494	3.06e5	2.51e5	1.78e6	1.83e6	inactive
CG7878	DRSC16330	59766	80127	1.72e6	1.12e6	inactive
CG7878	DRSC23990	6.44e5	7.62e5	8.51e5	8.23e5	inactive

Just “firefly reporter light, replicate 1” (7 entries from above):
CG9981 [DRSC20225]	2.05e5
Ank2 (Ankyrin 2) [DRSC08894]	1.76e5
Ank2 (Ankyrin 2) [DRSC09666]	2.04e5
Ank2 (Ankyrin 2) [DRSC10338]	1.19e5
Ank2 (Ankyrin 2) [DRSC11278]	1.60e5
Ank2 (Ankyrin 2) [DRSC22922]	6.25e5
Ank2 (Ankyrin 2) [DRSC29821]	3.55e5

Next reagents follow.
gene	amplicon	firefly reporter light, replicate 1	firefly reporter light, replicate 2	Renilla control light, replicate 1	Renilla control light, replicate 2	activity call
sordd1	DRSC28653	5.43e5	4.12e5	9.93e5	1.19e6	inactive
zip (zipper)	DRSC04725	3.66e5	4.80e5	2.45e6	2.44e6	inactive
zip (zipper)	DRSC22489	9.60e5	1.08e6	6.51e5	7.37e5	inactive
zip (zipper)	DRSC28416	3.64e5	8.20e5	1.01e6	1.62e6	inactive
Obp57c (Odorant-binding protein 57c)	DRSC06384	85459	99652	7.20e5	7.94e5	inactive
Ubi-p63E (Ubiquitin-63E)	DRSC22016	4.78e5	4.37e5	1.52e6	1.19e6	inactive
CG2258	DRSC18222	66420	76294	5.56e5	3.82e5	inactive
CG2258	DRSC28795	2.46e5	3.13e5	1.39e6	1.21e6	inactive
TpnC4 (Troponin C isoform 4)	DRSC04856	2.59e5	3.15e5	1.70e6	1.18e6	inactive
CG13312	DRSC09983	1.69e5	2.50e5	2.38e6	2.54e6	inactive
CG13312	DRSC26729	3.86e5	2.67e5	5.02e5	4.91e5	inactive
CG6791	DRSC16118	63692	1.12e5	4.17e5	5.27e5	inactive
CG6791	DRSC29079	6.28e5	7.42e5	1.55e6	1.43e6	inactive
crq (croquemort)	DRSC00810	1.17e5	1.02e5	6.56e5	7.84e5	inactive
Cp190 (Centrosomal protein 190kD)	DRSC16607	86013	87154	7.51e5	3.62e5	inactive
CG10081	DRSC05962	85546	1.16e5	9.89e5	1.37e6	inactive
CG10081	DRSC24787	9.12e5	9.87e5	9.56e5	1.04e6	inactive
CG7741	DRSC07035	2.98e5	1.84e5	1.63e6	1.32e6	inactive
SdhCL (Succinate dehydrogenase, subunit C-like)	DRSC16078	1.51e5	1.65e5	2.99e6	2.95e6	inactive
ND-B15 (NADH dehydrogenase (ubiquinone) B15 subunit)	DRSC06199	1.29e5	1.49e5	2.07e6	2.07e6	inactive
Sln (Silnoon)	DRSC07133	2.15e5	1.95e5	2.06e6	1.74e6	active
Sln (Silnoon)	DRSC24171	7.55e5	8.81e5	1.16e6	1.24e6	inactive
Gr47b (Gustatory receptor 47b)	DRSC05275	1.75e5	96258	2.96e5	3.30e5	inactive
CG18343	DRSC06726	3.23e5	3.21e5	1.53e6	1.78e6	inactive
alpha-Man-IIb (alpha-Mannosidase class II b)	DRSC16898	91980	88650	6.69e5	5.77e5	inactive
alpha-Man-IIb (alpha-Mannosidase class II b)	DRSC24186	1.05e6	1.13e6	1.09e6	9.04e5	inactive
alpha-Man-IIb (alpha-Mannosidase class II b)	DRSC38984	1.01e6	7.50e5	2.10e6	1.75e6	inactive
